No constants are given. Whether binding was seen depends on the method and setting. For some assays here: Binding seen in cells or lysates may run through a third protein. Some results given as binding are weak or reduced against the parent protein; the word gives no strength. Tags and fused reporters may be left off the sequences shown.
How the values were obtained:
GST-PARP-7 = molecular target: T1, GST-PARP-7 (UniProt Q7Z3E1); assay: pull-down; GST pulldown: His6-SUMO-PARP-13.2 (100 nM) and GST-PARP-7 (100 nM) in HRB (50 mM HEPES, 100 mM NaCl, 10 mM MgCl2, 0.5 mM TCEP) 1 hr at 4°C; then vehicle, NAD+ (100 μM), Phthal01 (1 μM) or NAD+ with Phthal01, 2 hr at 30°C; GSH-Sepharose; washes with HRB with 1 mM EDTA; Western blot for ADPr, GST, His6; both purified
T1 sequence: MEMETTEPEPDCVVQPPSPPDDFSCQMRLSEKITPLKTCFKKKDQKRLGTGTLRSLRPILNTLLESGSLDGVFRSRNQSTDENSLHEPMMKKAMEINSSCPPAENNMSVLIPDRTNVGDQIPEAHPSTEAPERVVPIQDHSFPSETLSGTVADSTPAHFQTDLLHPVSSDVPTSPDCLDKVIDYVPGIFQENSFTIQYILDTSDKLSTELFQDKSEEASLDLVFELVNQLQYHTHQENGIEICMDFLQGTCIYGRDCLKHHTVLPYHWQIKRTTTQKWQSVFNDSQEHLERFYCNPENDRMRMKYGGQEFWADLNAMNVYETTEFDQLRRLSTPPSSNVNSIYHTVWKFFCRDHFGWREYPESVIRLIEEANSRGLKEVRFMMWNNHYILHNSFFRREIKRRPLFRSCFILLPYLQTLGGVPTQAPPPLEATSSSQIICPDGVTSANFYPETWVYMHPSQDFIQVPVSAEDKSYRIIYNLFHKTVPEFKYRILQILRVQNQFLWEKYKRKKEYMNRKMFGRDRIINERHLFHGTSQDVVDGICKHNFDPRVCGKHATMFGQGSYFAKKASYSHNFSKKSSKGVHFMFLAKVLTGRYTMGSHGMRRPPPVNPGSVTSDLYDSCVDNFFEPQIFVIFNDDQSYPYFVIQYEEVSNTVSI

Sequences of proteins named here, by UniProt entry; tags and fusion partners are left off. A change or cut given only in a name is not applied to a line headed by its entry. A line that says so, or that is headed by a name, gives the form on record, which may keep a tag or linker.
MycX2-PARP-13.2 WT (Q7Z2W4-2, form named): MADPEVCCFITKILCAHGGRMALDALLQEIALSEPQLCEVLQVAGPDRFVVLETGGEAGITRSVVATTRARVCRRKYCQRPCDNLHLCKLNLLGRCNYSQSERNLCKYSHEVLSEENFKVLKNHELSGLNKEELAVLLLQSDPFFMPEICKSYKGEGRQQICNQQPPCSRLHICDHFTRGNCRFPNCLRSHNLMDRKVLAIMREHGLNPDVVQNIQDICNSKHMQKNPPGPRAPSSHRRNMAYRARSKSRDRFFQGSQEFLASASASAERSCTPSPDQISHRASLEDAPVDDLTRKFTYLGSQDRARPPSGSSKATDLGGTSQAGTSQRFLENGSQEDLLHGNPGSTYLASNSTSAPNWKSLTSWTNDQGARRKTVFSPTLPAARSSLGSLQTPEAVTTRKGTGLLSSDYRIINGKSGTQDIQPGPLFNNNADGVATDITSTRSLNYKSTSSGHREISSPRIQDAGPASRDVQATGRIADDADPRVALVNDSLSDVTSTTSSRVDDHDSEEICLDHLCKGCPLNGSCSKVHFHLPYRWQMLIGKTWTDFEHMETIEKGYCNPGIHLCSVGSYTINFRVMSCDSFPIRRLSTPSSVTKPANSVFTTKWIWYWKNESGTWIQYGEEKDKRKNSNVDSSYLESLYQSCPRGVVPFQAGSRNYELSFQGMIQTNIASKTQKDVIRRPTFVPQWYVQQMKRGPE

GFP-WT-PARP-7 = molecular target: T2, GFP-WT-PARP-7 (UniProt Q7Z3E1); assay: co-IP; MycX2-PARP-13.2 WT or ZnF domain mutants co-expressed with GFP-PARP-7 or GFP empty vector in HEK 293T cells; GFP-PARP-7 immunoprecipitated with GFP-nanobody magnetic beads (Chromotek); Western blot for ADPr, GFP, Myc, actin
T2 sequence: T1 sequence

Row | Substance | binding (GST-PARP-7) | binding (GFP-WT-PARP-7)
1 | His6-SUMO-PARP-13.2 (from UniProt Q7Z2W4-2 1-699) | binds | 
2 | MycX2-PARP-13.2 WT (from UniProt Q7Z2W4-2 1-699) |  | binds
